# Primary screen of a compound library

The chains behind the UniProt entries cited, without tags or fusion partners. Residues count along the entry.
UniProt Q8IDJ8, 1-583: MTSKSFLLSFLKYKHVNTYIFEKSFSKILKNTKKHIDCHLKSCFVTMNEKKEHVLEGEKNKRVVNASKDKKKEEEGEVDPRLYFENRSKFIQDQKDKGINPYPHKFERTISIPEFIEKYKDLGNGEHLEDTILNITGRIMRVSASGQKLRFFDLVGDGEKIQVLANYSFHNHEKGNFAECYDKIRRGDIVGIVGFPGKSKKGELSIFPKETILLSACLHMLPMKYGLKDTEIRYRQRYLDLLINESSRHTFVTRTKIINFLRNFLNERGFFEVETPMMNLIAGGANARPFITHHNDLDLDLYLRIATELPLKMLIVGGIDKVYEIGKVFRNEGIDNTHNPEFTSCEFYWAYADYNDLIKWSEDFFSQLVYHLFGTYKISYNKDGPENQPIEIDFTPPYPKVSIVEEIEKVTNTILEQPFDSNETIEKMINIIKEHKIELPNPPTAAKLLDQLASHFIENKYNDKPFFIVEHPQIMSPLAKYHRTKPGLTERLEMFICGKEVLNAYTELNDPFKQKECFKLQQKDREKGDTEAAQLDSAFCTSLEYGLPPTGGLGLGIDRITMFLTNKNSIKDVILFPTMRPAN

Values are the deposited “Percent Effect”, in %.
How 0% and 100% were set is not recorded. Most values in the screen are low, and negative values occur.
The compounds are a random part of those screened.
Two or more numbers in one place are separate tests of the same structure; such repeats can differ widely.
A dash means the value is not listed here; it may have been measured.

Toxoplasma: 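Assay of Toxoplasma gondii numbers, read through their beta-galactosidase reporter with a colour substrate. Concentration: 10 µM. The record gives no direction; the compounds picked for IC50 retests had high values, so higher reads as fewer parasites. Size under these conditions: about 67,000 compounds, about 260 of them at 50% or above in at least one test.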
T. brucei: 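Whole-parasite assay of Trypanosoma brucei over 72 hours; the read-out is not stated. Concentration: 30 µM. The record gives no direction; compounds that gave an IC50 in retests scored well above the rest, so higher reads as stronger inhibition. Values scatter widely below zero; nearly all retest evidence comes from the higher of the two concentrations used. Size under these conditions: about 64,000 compounds, about 940 of them at 50% or above in at least one test.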
Leishmania in macrophages: 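Cell assay of Leishmania donovani living inside macrophages; the read-out is not stated. Concentration: 30 µM. Direction is inferred from retests: higher values go with stronger inhibition. About 69,000 compounds were tested under these conditions; 1.5% (about 1,000) showed 50% or more at least once.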
PfKRS1: 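Lysine-tRNA ligase, Plasmodium falciparum 3D7 (UniProt Q8IDJ8). Enzyme assay of the cytosolic lysyl-tRNA synthetase in 384-well plates, read by luminescence. Compounds at 30 µM. Higher reads as stronger inhibition, judged from the few compounds that gave an IC50. About 69,000 compounds were tested under these conditions; 0.071% (about 49) showed 50% or more at least once.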

SMILES,Toxoplasma,T. brucei,Leishmania in macrophages,PfKRS1
Cc1cc(N(C)C)nc(C2(C)CCCN2CC(N)=O)n1 (stereo not drawn),-27.02,-9.094,17.76,0.6122
CNS(=O)(=O)CCn1cc(-c2ccc(NC(C)=O)cc2)nn1,10.99,-1.399,-40.82,4.957
CC(C)(C)OC(=O)N1CCC(C(=O)NCc2ccccc2)C1 (stereo not drawn),5.359,-23.23,29.53,6.263
Cc1cnc(CNC(=O)[C@@]23CCO[C@@H]2CCN(C2CCCC2)C3)cn1,-,-,-,3.92
c1coc(CN2CCO[C@@]3(CCC[C@@H]3COCc3nccs3)C2)c1,-6.638,-297.2,26.01,0.08957
O=C(CCC1CCCC1)N1C[C@H]2CC[C@@H]1CN(Cc1ccncc1)C2,-,-,-,-0.7614
Cn1nccc1-c1cncc(C2CCCN(S(C)(=O)=O)C2)n1 (stereo not drawn),12.52,-13.77,0.8895,2.326
Cc1c(Br)cccc1C(=O)Nc1cc(C(N)=O)n(C)c1,6.196,-20.5,-19.09,9.37
CCS(=O)(=O)N1CCC(NC(=O)c2cc3ccccc3cc2O)CC1,-25.67,21.58,29.75,0.07362
CN1CCN(Cc2cn3c(n2)CN(Cc2ccc(F)cc2)CC3)CC1,-,-,-,3
O=c1[nH]cnc2c1CCN(S(=O)(=O)c1ccc(OC(F)(F)F)cc1)C2,9.996,-9.01,24.26,6.246
NC(=O)C1CCCN1C1CCN(C(=O)c2ccc3c(c2)OCO3)CC1 (stereo not drawn),-7.325,-11.27,5.65,2.087
CC(C)(C)c1n[nH]cc1CNC1CCC(OCC(F)(F)F)CC1.Cl (stereo not drawn),-9.07,-24.55,49.73,-
Cc1ccc(CN2CCN(Cc3nccn3C)[C@H]3CS(=O)(=O)C[C@H]32)o1,-,-,-,0.8383
Fc1ccc(CN2CCC(F)(F)C3(CCN(c4cnccn4)C3)C2)cc1.O=C(O)C(F)(F)F.O=C(O)C(F)(F)F (stereo not drawn),29.18,93.17,8.31,-
O=C(CN1C(=O)CCCc2sccc21)NC1CCc2nccn2C1 (stereo not drawn),0.477,-482.6,-50.94,1.938
COc1ccccc1OC1CN(C(=O)c2c(C)nc3ccc(C)cn23)C1,4.98,0.8445,32.56,7.845
OC1CCN(C2CCN(Cc3cnc(-c4cccs4)nc3)CC2)CC1,2.752,-86.2,26.03,0.6737
CN(C)c1cc(C2CCCN(C(=O)c3noc4c3CCCC4)C2)ccn1 (stereo not drawn),-16.68,18.14,24.51,-1.24
c1ccc(NCc2cnc3n2CCN(C2CCOC2)CC3)nc1 (stereo not drawn),-10.41,-1.736,0.7565,-7.306
Cc1nc(C)n(CC2CCCN(CCOc3cccc(F)c3)C2)n1 (stereo not drawn),23.96,5.287,30.86,-0.7301
[H][C@@]12CN(c3ncccc3Cl)C[C@]1(C(=O)O)CN(CC1CC1)C2=O,-6.922,1.83,-12.33,-
O=C(O)C(F)(F)F.[H][C@@]12CCN(C(=O)c3ccoc3)[C@@]1([H])CC(=O)N2CCN1CCOCC1,-3.476,-17.01,16.64,-
O=C(NCCCn1nc2ccccn2c1=O)Nc1ccccc1,17.23,-36.69,3.152,-2.943
CC(C)N(C)Cc1nnc2n1CCCN(c1cnccn1)C2,11.62,-50.74,-2.329,4.042
CNCC(=O)Nc1ccc(-c2cnc(NCCS(C)(=O)=O)nc2)cc1,9.011,-12.7,8.579 & 19.42,4.642
CC(C)N1[C@@H](C(=O)NCC2CC2)C[C@@H]2CN(Cc3ccco3)C[C@@H]21,-,-,-,7.598
O=C(Cc1ccc(O)cc1)N1CCCC(O)(CN2CCOCC2)CC1 (stereo not drawn),7.235,-,-26.05,1.434
Cc1ncc(CNC(=O)CCc2ccccc2F)c(C2CCCN2C)n1 (stereo not drawn),-14.98,9.596,16.02 & -0.6038,2.576
CNC(=O)CN1CCO[C@H]2CN(CC3CCOC3)C[C@H]21 (stereo partly drawn),-,-,-,3.074
OC1(CN(Cc2cccnc2)C2CCCCC2)CNCCOC1 (stereo not drawn),13.99,-5.188,7.255,4.431
CC[C@@H](c1ccccc1)n1c(CN)n[nH]c1=O,-8.49,-22.46,-37.64,3.203
CCOCCN1CCn2c(C)nnc2C1,-51.91,-4.259,-2.573,-0.6049
COc1ccc(Cl)cc1NC(=O)N1CCc2nc(NC(C)=O)sc2C1,-11.49,-17.91,55.24,-2.675
O=C(O)C(c1ccc2c(c1)OCCO2)N1CCCCCC1 (stereo not drawn),-3.744,-16.21,26.05,4.004
Cc1nc(CNC(=O)NC(C)c2ccc3c(c2)OCCO3)cs1 (stereo not drawn),-6.519,-22.56,-33.81,-1.445
CN(C)Cc1cc(-c2nccn2CCn2cccn2)ccc1O,-2.96,-6.363,8.157,2.742
O=C(O)Cn1nc(C2CC2)c2c(-c3cccs3)ccnc21,-17.94,-13.65,-45.51,-0.1144
O=C(O)C(F)(F)F.[H][C@]12C[C@H](C(=O)NC)N(C)[C@@]1([H])CN(S(=O)(=O)c1cccc(F)c1)C2,2.761,-8.043,19.04,-
Cc1cc(CN2C[C@H]3CC[C@@H]2CN(Cc2c(C)noc2C)C3)ccc1F,-,-,-,3.285
CCc1noc(CN(CC)Cc2cc3ccc(F)cc3[nH]c2=O)n1,-12.57,4.66,-6.975,0.2668
Cn1cc(CN2CCC3(CC2)COC(COc2ccccn2)C3)cn1 (stereo not drawn),-4.89,-31.71,38.22,2.773
O=C(NCc1ccccn1)NCC(c1ccco1)N1CCCC1 (stereo not drawn),0.8696,8.729,12.36,0.2781
Cc1ccc(S(=O)(=O)N2C[C@H]3C[C@H](NC(=O)c4cc[nH]n4)[C@H]3C2)cc1,-,-,-,-0.8139
COCc1ncc(CN2CCN(C)C(=O)C2C)cn1 (stereo not drawn),-20.03,-13.69,21.61,5.564
CN1C[C@@H](O)[C@]2(CCN(C(=O)OCc3ccccc3)C2)S1(=O)=O,25.61,-20.18,7.412,3.4
CN(Cc1ccco1)c1ccc(-c2nccn2C)nn1,4.867,-104.1,-12.23,2.433
CNC(=O)N1CCOC(C)(c2cnn(C)c2)C1 (stereo not drawn),1.061,-14.43,27.04,-2.25
CCn1nc(C)c2ncnc(NCCCN3CCOCC3)c21,6.934,27.47,13.24,2.554
COc1cc(OCC(=O)NCCc2ccccc2)cc(OC)c1OC,-0.8866,-21.6,10.11,0.2058

The last 4 entries again:

| SMILES | Toxoplasma | T. brucei | Leishmania in macrophages | PfKRS1 |
|---|---|---|---|---|
| `CN(Cc1ccco1)c1ccc(-c2nccn2C)nn1` | 4.867 | -104.1 | -12.23 | 2.433 |
| `CNC(=O)N1CCOC(C)(c2cnn(C)c2)C1` (stereo not drawn) | 1.061 | -14.43 | 27.04 | -2.25 |
| `CCn1nc(C)c2ncnc(NCCCN3CCOCC3)c21` | 6.934 | 27.47 | 13.24 | 2.554 |
| `COc1cc(OCC(=O)NCCc2ccccc2)cc(OC)c1OC` | -0.8866 | -21.6 | 10.11 | 0.2058 |

Source: ChEMBL document CHEMBL3988442, “University of Dundee, Small-Polar-MMV Screening Library” (2021).